From PMC4474334
No constants are given. Whether binding was seen depends on the method and setting. For some assays here: In cells and extracts the contact can be indirect. Some binding calls cover weakened binding; strength is not graded here.

Chains of the proteins cited; added tags and fusions are not shown. Residues count along the entry.
UniProt Q9D0K2, residues 40-520: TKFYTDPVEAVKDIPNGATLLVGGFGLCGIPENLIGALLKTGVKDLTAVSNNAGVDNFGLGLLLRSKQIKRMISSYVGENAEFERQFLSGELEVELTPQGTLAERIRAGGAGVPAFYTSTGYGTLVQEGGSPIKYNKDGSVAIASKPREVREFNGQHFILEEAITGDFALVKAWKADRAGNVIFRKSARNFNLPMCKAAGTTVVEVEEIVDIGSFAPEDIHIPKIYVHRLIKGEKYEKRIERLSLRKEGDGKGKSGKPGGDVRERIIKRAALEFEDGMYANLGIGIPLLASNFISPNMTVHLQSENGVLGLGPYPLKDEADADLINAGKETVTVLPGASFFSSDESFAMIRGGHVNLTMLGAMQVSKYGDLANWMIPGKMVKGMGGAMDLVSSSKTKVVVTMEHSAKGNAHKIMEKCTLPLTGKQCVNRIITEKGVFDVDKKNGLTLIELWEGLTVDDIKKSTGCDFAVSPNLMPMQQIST
UniProt Q03265, residues 44-553: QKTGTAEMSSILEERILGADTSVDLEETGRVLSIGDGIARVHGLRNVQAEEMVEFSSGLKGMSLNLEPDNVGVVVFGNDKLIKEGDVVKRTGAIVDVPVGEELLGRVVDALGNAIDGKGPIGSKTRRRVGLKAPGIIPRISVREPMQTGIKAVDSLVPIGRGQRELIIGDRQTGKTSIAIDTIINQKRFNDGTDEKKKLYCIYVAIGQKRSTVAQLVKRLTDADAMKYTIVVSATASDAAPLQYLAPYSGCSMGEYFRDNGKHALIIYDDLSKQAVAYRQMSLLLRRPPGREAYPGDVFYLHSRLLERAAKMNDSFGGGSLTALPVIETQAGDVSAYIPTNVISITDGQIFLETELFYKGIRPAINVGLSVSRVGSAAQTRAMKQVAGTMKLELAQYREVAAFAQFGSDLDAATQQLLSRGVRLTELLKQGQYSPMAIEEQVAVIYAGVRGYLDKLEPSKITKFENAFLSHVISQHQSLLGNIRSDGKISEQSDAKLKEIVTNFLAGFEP
UniProt P56480, residues 47-529: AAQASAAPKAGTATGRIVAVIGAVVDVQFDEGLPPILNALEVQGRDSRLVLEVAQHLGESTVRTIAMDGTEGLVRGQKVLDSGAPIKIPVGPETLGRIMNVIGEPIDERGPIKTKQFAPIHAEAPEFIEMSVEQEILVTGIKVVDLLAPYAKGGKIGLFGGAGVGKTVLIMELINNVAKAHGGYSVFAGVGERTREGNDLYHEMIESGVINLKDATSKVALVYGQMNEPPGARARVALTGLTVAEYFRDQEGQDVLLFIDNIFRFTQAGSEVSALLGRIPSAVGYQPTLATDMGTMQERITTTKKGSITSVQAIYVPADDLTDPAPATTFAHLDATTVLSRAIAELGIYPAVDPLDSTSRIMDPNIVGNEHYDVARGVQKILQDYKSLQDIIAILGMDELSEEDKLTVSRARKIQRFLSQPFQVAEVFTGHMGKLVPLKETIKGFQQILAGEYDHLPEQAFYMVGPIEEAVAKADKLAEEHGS
UniProt P63038, residues 27-573: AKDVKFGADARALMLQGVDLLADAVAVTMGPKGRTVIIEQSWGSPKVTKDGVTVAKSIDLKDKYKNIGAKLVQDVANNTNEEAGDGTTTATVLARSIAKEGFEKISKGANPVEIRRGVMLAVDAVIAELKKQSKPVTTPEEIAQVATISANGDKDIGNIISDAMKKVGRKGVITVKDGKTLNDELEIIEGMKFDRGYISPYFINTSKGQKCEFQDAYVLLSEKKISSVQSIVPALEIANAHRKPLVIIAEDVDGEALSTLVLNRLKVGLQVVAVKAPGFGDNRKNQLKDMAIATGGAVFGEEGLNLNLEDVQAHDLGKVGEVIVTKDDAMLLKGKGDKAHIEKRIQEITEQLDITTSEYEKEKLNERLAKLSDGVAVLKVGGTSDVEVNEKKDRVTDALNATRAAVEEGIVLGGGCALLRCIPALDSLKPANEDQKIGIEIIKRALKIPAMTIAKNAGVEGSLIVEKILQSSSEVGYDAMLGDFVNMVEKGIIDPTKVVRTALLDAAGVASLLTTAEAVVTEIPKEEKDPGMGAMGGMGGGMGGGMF
UniProt P15917, residues 34-809: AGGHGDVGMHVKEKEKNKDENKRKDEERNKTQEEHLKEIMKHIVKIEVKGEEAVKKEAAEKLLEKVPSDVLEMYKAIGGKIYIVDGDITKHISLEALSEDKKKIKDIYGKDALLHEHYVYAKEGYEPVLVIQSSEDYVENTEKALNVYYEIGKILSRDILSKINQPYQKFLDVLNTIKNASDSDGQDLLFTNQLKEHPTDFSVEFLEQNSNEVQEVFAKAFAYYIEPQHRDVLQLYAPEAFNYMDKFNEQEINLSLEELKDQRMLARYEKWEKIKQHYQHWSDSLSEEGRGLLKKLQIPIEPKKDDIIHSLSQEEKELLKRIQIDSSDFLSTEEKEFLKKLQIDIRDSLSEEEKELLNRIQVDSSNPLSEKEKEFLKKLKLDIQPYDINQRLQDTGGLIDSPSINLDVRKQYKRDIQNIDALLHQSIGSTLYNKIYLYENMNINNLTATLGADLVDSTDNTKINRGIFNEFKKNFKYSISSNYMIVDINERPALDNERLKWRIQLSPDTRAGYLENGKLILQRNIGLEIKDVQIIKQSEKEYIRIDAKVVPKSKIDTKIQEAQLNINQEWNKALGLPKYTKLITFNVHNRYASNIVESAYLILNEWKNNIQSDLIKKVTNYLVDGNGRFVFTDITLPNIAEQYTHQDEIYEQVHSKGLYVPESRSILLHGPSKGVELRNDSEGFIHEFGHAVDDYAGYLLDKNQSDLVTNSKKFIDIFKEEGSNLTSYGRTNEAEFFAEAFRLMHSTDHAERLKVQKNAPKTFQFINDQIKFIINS

Experiments:
[1] = target: T1, Mitochondrial ATP synthase subunit O (precursor) (mouse (endogenous in MH-S)) (UniProt Q9DB20); experiment: far-Western; only the binder purified
T1 sequence: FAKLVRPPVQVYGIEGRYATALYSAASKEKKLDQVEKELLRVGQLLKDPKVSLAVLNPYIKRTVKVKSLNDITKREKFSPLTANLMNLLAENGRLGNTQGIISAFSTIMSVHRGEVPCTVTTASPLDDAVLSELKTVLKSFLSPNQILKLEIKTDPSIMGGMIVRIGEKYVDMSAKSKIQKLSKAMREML

[2] = target: T2, Mitochondrial cytochrome bc-1 complex subunit core 2 (precursor) (mouse (endogenous in MH-S)) (UniProt Q9DB77); experiment: far-Western; only the binder purified
T2 sequence: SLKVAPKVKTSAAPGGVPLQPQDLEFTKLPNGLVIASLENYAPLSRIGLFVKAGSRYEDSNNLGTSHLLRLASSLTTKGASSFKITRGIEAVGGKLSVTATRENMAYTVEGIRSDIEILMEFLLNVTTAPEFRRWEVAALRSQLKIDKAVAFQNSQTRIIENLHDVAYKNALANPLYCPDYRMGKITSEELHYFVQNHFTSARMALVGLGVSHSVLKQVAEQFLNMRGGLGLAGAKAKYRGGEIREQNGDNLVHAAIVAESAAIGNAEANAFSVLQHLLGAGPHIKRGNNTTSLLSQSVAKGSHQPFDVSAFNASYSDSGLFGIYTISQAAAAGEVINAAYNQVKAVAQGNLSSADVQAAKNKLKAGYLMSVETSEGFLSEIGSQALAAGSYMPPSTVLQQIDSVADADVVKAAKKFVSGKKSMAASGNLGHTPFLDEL

[3] = target: 3-oxoacid CoA transferase (mouse (endogenous in MH-S)) (UniProt Q9D0K2); experiment: far-Western; only the binder purified
[4] = target: T3, Short-chain specific acyl-CoA dehydrogenase (precursor) (mouse (endogenous in MH-S)) (UniProt Q07417); experiment: far-Western; only the binder purified
T3 sequence: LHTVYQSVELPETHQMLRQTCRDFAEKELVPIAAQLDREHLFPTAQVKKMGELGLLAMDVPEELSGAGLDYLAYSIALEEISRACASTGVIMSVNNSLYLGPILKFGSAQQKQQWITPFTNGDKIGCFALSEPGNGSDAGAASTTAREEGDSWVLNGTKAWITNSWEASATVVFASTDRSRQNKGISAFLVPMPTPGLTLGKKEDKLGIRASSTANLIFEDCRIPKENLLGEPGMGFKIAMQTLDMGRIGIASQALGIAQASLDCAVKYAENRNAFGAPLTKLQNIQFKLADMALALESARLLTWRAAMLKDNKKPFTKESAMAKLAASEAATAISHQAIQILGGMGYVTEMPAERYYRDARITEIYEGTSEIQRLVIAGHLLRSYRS

[5] = target: T4, Mitochondrial cytochrome bc-1 complex subunit core 1 (precursor) (mouse (endogenous in MH-S)) (UniProt Q9CZ13); experiment: far-Western; only the binder purified
T4 sequence: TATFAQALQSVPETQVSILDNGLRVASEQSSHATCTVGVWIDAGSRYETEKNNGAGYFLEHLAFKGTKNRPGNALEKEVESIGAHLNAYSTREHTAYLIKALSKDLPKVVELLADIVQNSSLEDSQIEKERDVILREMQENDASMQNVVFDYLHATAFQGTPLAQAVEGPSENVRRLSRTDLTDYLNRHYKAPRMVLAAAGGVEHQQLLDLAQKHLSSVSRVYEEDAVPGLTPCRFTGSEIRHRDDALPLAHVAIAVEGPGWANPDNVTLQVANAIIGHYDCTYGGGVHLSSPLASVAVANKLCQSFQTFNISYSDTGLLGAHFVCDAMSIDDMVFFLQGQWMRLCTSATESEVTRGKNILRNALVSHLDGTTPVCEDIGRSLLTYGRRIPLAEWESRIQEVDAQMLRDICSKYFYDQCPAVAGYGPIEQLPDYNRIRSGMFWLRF

[6] = target: Mitochondrial ATP synthase subunit alpha (precursor) (mouse (endogenous in MH-S)) (UniProt Q03265); experiment: far-Western; only the binder purified
[7] = target: T5, Mitochondrial ATP synthase H+ transporting F0 complex subunit b, isoform 1 (precursor) (mouse (endogenous in MH-S)) (UniProt Q9CQQ7); experiment: far-Western; only the binder purified
T5 sequence: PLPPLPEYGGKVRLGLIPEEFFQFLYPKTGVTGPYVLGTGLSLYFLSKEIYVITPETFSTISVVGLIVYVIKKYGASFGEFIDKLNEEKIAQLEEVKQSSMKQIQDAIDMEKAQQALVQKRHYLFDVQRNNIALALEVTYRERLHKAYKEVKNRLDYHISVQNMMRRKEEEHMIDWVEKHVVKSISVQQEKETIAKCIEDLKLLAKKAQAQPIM

[8] = target: Mitochondrial ATP synthase H+ transporting, F1 subunit beta (mouse (endogenous in MH-S and LA-4)) (UniProt P56480); experiment: far-Western; only the binder purified
[9] = target: Heat shock protein (60 kD, mitochondrial) (mouse (endogenous in MH-S)) (UniProt P63038); experiment: far-Western; only the binder purified
[10] = target: T6, Mitochondrial trifunctional enzyme subunit beta (precursor) (mouse (endogenous in MH-S)) (UniProt Q99JY0); experiment: far-Western; only the binder purified
T6 sequence: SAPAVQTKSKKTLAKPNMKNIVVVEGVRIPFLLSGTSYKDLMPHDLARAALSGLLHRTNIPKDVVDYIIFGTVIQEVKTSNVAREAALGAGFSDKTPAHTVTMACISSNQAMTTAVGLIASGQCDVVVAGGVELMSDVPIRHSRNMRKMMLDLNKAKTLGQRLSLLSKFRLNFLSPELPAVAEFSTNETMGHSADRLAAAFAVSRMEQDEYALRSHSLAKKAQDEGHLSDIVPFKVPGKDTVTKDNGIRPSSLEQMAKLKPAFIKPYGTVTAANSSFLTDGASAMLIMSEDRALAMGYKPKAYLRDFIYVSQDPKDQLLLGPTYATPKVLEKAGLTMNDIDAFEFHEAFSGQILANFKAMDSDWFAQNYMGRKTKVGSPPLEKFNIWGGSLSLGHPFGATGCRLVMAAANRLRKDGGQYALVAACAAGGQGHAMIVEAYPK

[11] = target: anthrax lethal factor (Bacillus anthracis) (UniProt P15917); experiment: co-IP

Measured: binding

anthrax lethal factor (from UniProt P15917 34-809) (enzyme)
not listed: [11]
binds: all other assays above

Mitochondrial ATP synthase H+ transporting, F1 subunit beta (from UniProt P56480 47-529)
binds: [11]
